At least one compound was matched to its structure with a doubt left.
Tests used:
CD-1 mouse = experiment: Inflammation (skin stimulus) alleviating effect on TPA-induced ear inflammation; type: in vivo; settings: positive controls 1 mM (group C Wy14643, group B clofibrate); vs TPA only
Method: In order to examine the inflammation (skin stimulus) alleviating effect of the lactic acid bacteria culture of mung bean containing the mung bean extract and GABA, which was obtained in the embodiment 2, a following test was conducted according to a method used by Sheu et al. (The Journal of Investigative Dermatology, 118, pp 94-101, 2002).
First, CD-1 mouse (male & female, 6-8 weeks, Charles River, USA) were used as test objects, and as stimulus material, 10 μl of TPA (12-O-tetradecanonylphorbol-13-acetate) 0.03% (wt/vol. in acetone) solution was applied to inside and outside of both ears of the test animals. Due to the treatment material, the ear was thickened and there occurred an inflammatory reaction. After that, as a positive control group, clofibrate (1 mM) and Wy14643 (1 mM) which are agonists of PPAR CL (Sheu et al., The Journal of Investigative Dermatology, 118, pp 94-101, 2002), and as a test material, the lactic acid bacteria culture of mung bean in the embodiment 2 were applied to the both surfaces of the ears in an amount of […], respectively, at 45 minutes and 4 hours after the inflammation induction.

skin = settings: applied to the skin; cited from earlier work

CCOC(=O)C(C)(C)Oc1ccc(Cl)cc1 [clofibrate]
inflammation alleviation, H&E dyed tissue slide (FIG. 5) (CD-1 mouse): the inflammation was also alleviated
skin inflammation due to stimulus materials after application to the skin (skin): the inflammation due to stimulus materials is decreased

Reference: patent publication US20090068150A1, “LACTIC ACID BACTERIA CULTURE OF MUNG BEAN AND THE PREPARATION METHOD OF THE SAME, AND THE COSMETIC COMPOSITION COMPRISING THE SAME” (Doosan Corporation, priority 2005, published 2009)
